Biological target: P-gp (Homo sapiens, UniProt P08183)
Experiment: P-gp substrate assessment using MDR1-MDCK monolayers (Example 1, +/- valspodar)
Type: in vitro ADME
Design: expressed in transfected cells; host or cells: MDR1-MDCK cells
Settings: dog; 12-well plates, QC of MDR1-MDCK cell batch; read-out: Papp (cell batch quality control)
Method: MDR1-MDCK cell monolayers were grown to confluence on collagen-coated, microporous membranes in 12-well assay plates. Details of the plates and their certification are shown below. The permeability assay buffer was Hanks' balanced salt solution (HBSS) containing 10 mM HEPES and 15 mM glucose at a pH of 7.4. The buffer in the receiver chamber also contained 1% bovine serum albumin. The dosing solution concentration was 5 μM of test article in the assay buffer+/−1 μM valspodar. Cells were first pre-incubated for 30 min with HBSS containing+/−1 μM valspodar. Cell monolayers were dosed on the apical side (A-to-B) or basolateral side (B-to-A) and incubated at 37° C. with 5% CO2 in a humidified incubator. Samples were taken from the donor and receiver chambers at 120 min. Each determination was performed in duplicate. The flux of lucifer yellow was also measured post-experimentally for each monolayer to ensure no damage was inflicted to the cell monolayers during the flux period. All samples were assayed by LC-MS/MS using electrospray ionization. […]
The apparent permeability (Papp) and percent recovery were calculated as follows: […]

Amino acid sequences for entries named in this document (tags omitted).
UniProt P08183, whole entry: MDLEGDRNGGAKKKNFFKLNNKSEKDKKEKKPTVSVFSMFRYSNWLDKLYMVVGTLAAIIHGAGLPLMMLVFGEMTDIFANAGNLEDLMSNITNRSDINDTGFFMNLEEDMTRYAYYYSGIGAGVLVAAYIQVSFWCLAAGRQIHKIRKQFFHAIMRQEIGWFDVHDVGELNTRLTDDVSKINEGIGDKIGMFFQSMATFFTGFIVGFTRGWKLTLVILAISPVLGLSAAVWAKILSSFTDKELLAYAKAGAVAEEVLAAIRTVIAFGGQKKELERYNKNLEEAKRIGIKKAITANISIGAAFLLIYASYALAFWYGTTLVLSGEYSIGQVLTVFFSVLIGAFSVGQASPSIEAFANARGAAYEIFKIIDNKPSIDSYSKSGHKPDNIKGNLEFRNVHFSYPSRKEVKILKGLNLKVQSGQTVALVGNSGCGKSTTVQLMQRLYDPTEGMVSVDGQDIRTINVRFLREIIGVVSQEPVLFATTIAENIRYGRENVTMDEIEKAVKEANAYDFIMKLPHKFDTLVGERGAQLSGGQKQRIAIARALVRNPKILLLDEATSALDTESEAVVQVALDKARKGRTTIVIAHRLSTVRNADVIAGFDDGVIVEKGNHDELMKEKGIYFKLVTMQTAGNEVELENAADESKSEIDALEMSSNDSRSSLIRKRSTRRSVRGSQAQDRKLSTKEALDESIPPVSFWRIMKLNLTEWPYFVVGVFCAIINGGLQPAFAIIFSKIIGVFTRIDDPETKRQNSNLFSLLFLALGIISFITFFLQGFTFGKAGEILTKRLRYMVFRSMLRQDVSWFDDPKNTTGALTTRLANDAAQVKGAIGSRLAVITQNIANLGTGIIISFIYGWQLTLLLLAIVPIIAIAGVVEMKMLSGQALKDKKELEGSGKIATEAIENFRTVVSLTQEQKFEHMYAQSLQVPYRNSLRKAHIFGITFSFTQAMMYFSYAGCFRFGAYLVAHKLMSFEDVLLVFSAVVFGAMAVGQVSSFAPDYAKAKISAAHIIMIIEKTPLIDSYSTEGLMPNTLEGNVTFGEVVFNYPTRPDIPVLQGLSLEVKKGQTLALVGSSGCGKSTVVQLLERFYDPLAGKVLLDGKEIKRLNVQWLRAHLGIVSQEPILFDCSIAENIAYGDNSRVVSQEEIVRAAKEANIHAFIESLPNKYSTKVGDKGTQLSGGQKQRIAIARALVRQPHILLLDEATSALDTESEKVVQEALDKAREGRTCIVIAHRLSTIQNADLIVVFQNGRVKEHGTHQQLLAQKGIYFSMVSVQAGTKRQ

## CC(C)NCC(O)COc1ccc(CC(N)=O)cc1 (stereo not shown) [Atenolol]
  Papp: 0.05 ×10⁻⁶ cm/s

— US20250152591A1, “TREATMENT OF HEMATOLOGICAL MALIGNANCIES WITH MENIN INHIBITORS AND P-GLYCOPROTEIN INHIBITORS” (Kura Oncology, Inc., priority 2022, published 2025)
